{"source": "patent US10858389", "about": "(dated 2020)", "assay": "general procedure: solution-phase peptide synthesis; EDC.HCl/HONb/DIPEA; HOBt", "conditions": "for crude HPLC purity: UV 220 nm (HPLC method 2)", "key": {"[1]": {"conditions": "late stage modification step, HPLC"}}, "note": "Square brackets hold non-standard residues; d marks the D form. * marks the point of attachment. dOrn = NCCC[C@@H](N)C(=O)O; Orn = NCCC[C@H](N)C(=O)O; Boc = CC(C)(C)OC(=O)*; Acm = CC(=O)NC*"}
{"substance": "Ac-D-Cys(Trt)-D-Ala-D-Arg-D-Arg-D-Arg-D-Ala-D-Arg-NH2. 4HCl", "values": [{"measurement": "final HPLC purity", "setting": "coupling step, HPLC", "value": "greater than 99 Area %"}, {"measurement": "crude HPLC purity", "setting": "coupling step", "value": 86.7, "unit": "% RS"}, {"measurement": "step yield", "setting": "purification step", "value": 64, "unit": "%"}]}
{"substance": "Ac-D-Cyst(Acm)-D-Ala-D-Arg(Boc)2-D-Arg(Boc)2-D-Arg(Boc)2-D-Ala-D-Arg(Boc)2-NH2", "values": [{"measurement": "step yield", "setting": "late stage modification step", "value": 31, "unit": "%"}, {"measurement": "final HPLC purity", "setting": "[1]", "value": 94.9, "unit": "%"}]}
{"substance": "Ac-[dC](Acm)[dA][dOrn](Boc)[dOrn](Boc)[dOrn](Boc)[dA][Orn](Boc)-NH2", "values": [{"measurement": "step yield", "setting": "late stage modification step", "value": 73, "unit": "%"}, {"measurement": "final HPLC purity", "setting": "[1]", "value": 96.3, "unit": "%"}]}
{"substance": "Ac-[dC](Acm)[dA][dOrn](Boc)[dOrn](Boc)[dOrn](Boc)[dA][Orn](Boc)-OMe", "values": [{"measurement": "step yield", "setting": "coupling step", "value": 62, "unit": "%"}, {"measurement": "final HPLC purity", "setting": "coupling step, HPLC", "value": 99, "unit": "%"}]}
{"substance": "Etelcalcetide", "values": [{"measurement": "step yield", "setting": "late stage modification step", "value": 53, "unit": "%"}, {"measurement": "final HPLC purity", "setting": "late stage modification step, UPLC UV 220 nm", "value": ">95", "unit": "% RS"}, {"measurement": "crude HPLC purity", "setting": "late stage modification step", "value": 60, "unit": "% RS"}, {"measurement": "step yield", "setting": "purification step", "value": ">90", "unit": "%"}]}
{"substance": "H-(D)Arg-(D)Arg-(D)Ala-(D)Arg-NH2.4HCl", "values": [{"measurement": "step yield", "setting": "coupling step, 4HCl", "value": 74.5, "unit": "%"}, {"measurement": "purity (crude or final not stated)", "setting": "coupling step, HPLC, 4HCl", "value": 94.1, "unit": "%"}]}
{"substance": "Z-D-Orn(Boc)-D-Orn(Boc)-D-Ala-Orn(Boc)-OMe", "values": [{"measurement": "step yield", "setting": "coupling step", "value": 81, "unit": "%"}, {"measurement": "final HPLC purity", "setting": "coupling step, HPLC", "value": 99, "unit": "%"}]}
